{"sequences": {"note": "Amino acid sequences for entries named in this document (tags omitted). A change or cut given only in a name is not applied to a line headed by its entry. Residues count along the entry.", "UniProt Q6NXT1": "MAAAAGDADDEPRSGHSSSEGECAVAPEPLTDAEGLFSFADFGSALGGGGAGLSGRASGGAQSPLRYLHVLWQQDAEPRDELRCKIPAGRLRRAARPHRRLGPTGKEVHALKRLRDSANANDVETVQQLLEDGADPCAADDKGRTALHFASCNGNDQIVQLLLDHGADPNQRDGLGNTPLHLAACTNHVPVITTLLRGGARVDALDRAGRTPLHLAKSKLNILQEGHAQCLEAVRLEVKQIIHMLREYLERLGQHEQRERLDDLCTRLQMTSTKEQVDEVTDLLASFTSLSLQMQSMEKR", "UniProt Q9UPS8": "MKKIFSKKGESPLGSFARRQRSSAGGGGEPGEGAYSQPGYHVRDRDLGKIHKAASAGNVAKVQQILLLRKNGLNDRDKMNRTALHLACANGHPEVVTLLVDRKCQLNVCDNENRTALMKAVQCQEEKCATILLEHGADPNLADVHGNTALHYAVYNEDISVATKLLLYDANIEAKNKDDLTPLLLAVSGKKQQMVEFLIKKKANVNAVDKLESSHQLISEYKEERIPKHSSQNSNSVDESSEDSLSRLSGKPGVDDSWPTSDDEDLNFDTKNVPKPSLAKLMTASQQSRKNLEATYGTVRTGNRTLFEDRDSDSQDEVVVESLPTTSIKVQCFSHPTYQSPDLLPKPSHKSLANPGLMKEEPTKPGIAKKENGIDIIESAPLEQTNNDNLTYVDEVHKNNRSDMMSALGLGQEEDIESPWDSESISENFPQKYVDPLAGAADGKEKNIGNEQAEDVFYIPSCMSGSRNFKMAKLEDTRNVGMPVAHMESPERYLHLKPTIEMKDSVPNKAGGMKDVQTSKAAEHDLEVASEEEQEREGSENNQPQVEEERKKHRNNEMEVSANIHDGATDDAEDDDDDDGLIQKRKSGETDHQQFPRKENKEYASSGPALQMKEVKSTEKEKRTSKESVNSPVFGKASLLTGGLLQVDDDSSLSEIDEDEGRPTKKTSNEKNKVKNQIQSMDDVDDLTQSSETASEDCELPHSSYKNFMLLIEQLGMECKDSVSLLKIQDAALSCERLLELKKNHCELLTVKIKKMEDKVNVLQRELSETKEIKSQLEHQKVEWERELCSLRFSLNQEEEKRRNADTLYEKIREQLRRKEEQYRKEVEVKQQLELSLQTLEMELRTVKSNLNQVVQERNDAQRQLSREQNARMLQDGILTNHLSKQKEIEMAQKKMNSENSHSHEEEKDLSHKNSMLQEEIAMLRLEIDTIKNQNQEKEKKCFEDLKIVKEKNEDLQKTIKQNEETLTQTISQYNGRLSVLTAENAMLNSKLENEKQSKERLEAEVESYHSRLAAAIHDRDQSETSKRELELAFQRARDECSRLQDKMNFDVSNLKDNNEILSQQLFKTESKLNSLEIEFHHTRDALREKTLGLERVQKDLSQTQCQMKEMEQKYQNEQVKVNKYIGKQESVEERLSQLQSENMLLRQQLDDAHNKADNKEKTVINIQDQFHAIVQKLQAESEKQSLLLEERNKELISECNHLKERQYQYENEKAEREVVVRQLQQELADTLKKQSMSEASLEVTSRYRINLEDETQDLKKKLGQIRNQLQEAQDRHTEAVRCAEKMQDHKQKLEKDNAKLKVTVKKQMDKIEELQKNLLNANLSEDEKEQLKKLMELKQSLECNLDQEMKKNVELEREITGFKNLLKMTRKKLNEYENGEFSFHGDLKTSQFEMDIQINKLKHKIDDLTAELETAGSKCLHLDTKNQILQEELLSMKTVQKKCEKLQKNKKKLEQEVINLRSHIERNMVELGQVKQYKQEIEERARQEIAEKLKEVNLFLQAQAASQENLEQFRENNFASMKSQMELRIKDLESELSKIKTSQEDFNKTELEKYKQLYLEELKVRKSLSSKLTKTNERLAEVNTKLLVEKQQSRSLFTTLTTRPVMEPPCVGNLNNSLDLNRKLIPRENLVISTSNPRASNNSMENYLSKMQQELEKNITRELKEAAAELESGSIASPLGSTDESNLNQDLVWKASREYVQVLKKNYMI", "UniProt O00192": "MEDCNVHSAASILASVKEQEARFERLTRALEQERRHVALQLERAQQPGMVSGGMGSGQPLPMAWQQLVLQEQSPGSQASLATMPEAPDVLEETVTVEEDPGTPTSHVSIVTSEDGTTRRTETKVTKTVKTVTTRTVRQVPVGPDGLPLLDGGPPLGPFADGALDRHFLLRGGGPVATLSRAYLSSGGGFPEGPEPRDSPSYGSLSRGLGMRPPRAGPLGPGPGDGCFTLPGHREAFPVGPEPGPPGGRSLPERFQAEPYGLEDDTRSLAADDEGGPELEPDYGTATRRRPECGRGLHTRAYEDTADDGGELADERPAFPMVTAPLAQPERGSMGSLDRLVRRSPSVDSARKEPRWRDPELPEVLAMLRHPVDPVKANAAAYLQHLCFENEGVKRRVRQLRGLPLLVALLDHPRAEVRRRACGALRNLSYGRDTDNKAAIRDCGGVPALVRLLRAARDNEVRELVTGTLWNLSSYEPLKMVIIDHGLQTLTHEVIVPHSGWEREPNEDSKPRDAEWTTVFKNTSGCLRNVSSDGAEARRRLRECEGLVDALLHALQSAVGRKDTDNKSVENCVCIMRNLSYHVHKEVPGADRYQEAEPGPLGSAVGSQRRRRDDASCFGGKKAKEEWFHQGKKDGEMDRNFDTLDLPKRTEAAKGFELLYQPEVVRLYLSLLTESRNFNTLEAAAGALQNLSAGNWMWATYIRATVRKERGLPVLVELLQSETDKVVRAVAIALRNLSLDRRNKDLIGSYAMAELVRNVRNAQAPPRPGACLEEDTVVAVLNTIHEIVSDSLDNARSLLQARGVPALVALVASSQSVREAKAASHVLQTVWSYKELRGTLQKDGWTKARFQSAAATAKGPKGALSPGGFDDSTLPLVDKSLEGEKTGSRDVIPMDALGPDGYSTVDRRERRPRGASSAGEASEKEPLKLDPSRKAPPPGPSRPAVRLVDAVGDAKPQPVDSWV", "UniProt P29374": "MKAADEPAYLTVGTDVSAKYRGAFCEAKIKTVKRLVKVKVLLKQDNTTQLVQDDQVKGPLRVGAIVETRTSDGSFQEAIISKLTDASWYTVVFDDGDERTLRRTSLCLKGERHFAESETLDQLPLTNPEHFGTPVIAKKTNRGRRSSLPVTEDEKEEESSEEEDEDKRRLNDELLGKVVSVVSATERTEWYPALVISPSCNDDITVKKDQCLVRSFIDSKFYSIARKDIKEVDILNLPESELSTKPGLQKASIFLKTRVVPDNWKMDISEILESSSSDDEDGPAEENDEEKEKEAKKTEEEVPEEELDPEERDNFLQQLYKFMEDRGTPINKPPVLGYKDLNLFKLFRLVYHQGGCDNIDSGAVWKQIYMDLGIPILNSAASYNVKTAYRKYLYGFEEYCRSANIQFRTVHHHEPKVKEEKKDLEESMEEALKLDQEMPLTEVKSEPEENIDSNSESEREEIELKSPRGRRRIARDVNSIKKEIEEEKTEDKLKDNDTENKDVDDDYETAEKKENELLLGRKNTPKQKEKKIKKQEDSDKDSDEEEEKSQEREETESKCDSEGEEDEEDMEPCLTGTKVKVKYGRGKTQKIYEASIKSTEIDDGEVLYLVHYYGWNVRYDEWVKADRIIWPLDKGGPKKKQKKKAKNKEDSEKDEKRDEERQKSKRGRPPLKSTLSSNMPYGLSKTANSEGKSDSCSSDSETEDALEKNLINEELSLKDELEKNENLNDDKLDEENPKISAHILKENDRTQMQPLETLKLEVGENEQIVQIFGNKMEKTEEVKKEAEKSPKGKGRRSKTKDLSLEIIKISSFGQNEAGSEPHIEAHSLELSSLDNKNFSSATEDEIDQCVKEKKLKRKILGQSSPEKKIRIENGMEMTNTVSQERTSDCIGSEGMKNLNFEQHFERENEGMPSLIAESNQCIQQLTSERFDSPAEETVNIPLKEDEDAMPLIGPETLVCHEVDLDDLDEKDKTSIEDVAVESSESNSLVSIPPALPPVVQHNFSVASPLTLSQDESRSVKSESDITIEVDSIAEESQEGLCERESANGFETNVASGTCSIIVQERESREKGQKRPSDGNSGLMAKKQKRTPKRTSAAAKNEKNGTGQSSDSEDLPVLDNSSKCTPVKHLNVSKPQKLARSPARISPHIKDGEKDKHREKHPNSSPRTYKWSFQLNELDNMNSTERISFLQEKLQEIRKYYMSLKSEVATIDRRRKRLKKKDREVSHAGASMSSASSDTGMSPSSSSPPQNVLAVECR", "UniProt Q92625, 142-166": "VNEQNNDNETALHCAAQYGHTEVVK", "UniProt Q8N3C0, whole entry, looked up": "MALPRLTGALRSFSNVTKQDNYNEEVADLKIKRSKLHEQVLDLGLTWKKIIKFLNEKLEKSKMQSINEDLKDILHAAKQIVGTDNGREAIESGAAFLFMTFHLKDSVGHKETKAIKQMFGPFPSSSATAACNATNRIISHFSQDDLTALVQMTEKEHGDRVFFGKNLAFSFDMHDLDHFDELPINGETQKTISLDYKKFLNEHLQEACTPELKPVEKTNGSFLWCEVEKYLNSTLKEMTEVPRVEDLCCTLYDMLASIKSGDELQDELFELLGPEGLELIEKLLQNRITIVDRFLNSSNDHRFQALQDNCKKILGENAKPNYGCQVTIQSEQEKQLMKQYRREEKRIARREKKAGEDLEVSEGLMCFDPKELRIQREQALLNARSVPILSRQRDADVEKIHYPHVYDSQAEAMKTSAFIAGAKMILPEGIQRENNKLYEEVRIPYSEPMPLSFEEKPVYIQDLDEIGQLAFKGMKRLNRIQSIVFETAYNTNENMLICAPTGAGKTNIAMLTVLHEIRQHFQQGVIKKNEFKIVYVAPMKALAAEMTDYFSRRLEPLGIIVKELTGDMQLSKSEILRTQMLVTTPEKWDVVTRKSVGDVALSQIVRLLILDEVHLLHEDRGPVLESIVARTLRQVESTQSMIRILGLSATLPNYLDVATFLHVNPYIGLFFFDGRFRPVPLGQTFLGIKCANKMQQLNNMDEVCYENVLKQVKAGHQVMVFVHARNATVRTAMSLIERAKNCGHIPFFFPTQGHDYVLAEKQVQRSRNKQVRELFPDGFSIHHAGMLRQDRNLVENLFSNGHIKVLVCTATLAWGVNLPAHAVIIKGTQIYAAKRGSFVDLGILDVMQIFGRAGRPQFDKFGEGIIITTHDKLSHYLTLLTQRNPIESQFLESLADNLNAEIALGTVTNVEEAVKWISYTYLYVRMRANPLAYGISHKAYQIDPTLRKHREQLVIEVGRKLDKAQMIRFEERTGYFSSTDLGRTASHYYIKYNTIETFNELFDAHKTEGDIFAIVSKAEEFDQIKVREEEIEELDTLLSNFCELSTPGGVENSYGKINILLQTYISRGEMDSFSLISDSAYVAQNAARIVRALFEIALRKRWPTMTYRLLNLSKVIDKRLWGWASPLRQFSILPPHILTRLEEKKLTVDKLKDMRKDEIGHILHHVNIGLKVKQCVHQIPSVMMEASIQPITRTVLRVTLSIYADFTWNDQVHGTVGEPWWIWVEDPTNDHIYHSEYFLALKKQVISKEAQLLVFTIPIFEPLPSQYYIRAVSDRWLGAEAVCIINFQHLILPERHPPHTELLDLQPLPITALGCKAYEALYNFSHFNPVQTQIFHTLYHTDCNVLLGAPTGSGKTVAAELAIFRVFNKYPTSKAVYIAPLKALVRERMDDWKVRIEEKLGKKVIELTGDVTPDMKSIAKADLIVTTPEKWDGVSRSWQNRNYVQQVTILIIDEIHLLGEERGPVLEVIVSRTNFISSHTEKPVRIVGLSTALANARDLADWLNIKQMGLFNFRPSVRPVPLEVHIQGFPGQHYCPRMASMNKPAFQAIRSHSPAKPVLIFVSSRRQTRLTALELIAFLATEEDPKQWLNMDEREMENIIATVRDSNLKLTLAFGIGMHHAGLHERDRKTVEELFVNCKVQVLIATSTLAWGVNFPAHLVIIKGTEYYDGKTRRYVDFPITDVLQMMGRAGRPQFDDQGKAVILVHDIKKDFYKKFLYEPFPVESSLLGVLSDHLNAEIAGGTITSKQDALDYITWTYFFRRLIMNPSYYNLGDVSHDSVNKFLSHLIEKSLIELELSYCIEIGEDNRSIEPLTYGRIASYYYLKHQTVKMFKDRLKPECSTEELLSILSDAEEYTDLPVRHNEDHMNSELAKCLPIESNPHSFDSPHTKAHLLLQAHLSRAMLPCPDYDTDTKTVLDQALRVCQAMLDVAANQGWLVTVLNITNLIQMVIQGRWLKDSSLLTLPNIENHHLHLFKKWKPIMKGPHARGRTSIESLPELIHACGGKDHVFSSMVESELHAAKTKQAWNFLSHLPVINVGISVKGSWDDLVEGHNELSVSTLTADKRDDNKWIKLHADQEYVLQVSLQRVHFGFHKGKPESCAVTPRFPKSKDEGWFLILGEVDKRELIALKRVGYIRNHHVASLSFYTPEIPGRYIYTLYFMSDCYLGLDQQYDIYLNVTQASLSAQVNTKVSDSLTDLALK", "UniProt Q68EM7, 301-325": "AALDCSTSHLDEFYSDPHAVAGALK"}, "source": "the supplement of paper PMC11732987", "about": "“Enantioselective OTUD7B fragment discovery through chemoproteomics screening and high-throughput optimisation” (Communications Chemistry, 2025)", "note": "This is one part of the list. The data scatter; read single values as rough.", "data": [{"compound": "ClCC(=O)N[C@@H]1CCCc2ccccc12", "assay": "log2 mean competition ratio of IA-DTB cysteine labelling (DMSO/compound) (log2 ratio); higher = stronger cysteine engagement by compound", "settings": "50 µM; treatment time: 4 h; cell line lysate: HEK293T", "protocol": "(§1)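 IA-DTB competitive cysteine chemoproteomics in HEK293T RIPA lysate. Lysates were treated with compound 29 or 30 at 50 or 200 µM for 4 h, then IA-DTB (500 µM, 1 h), trypsin-digested, NeutrAvidin-enriched and analysed by diaPASEF. Competition ratio = intensity DMSO / intensity compound (n=4 treated, n=64 DMSO); binding: mean log2 CR ≥ 1 and p ≤ 0.05 plus QC filters. Target is the cysteine site.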", "values": [{"target": "ANKRD17 C242 (UniProt O75179)", "log2 mean competition ratio": -0.0421}, {"target": "APBA2 C483 (UniProt Q99767)", "log2 mean competition ratio": -0.393}, {"target": "ARIH1 C161 (UniProt Q9Y4X5)", "log2 mean competition ratio": 0.35}, {"target": "ARID2 C1512 (UniProt Q68CP9)", "log2 mean competition ratio": -0.176}, {"target": "ANKRD54 C230 (UniProt Q6NXT1)", "log2 mean competition ratio": 0.252}, {"target": "ARL16 C164", "log2 mean competition ratio": -0.287}, {"target": "AP1B1 C921 (UniProt Q10567)", "log2 mean competition ratio": -0.114}, {"target": "ANKRD26 C1106 (UniProt Q9UPS8)", "log2 mean competition ratio": -0.105}, {"target": "ARPIN C183 (UniProt Q7Z6K5)", "log2 mean competition ratio": -0.0776}, {"target": "APBB2 C560 (UniProt Q92870)", "log2 mean competition ratio": 0.177}, {"target": "ARHGEF28 C783", "log2 mean competition ratio": -0.0511}, {"target": "AP2A1 C267 (UniProt O95782)", "log2 mean competition ratio": 0.271}, {"target": "AP2A1 C171 (UniProt O95782)", "log2 mean competition ratio": 0.294}, {"target": "ARHGAP11A C690 (UniProt Q6P4F7)", "log2 mean competition ratio": 0.132}, {"target": "ARVCF C442 (UniProt O00192)", "log2 mean competition ratio": 0.077}, {"target": "AS3MT C271", "log2 mean competition ratio": 0.0713}, {"target": "ARID4A C25 (UniProt P29374)", "log2 mean competition ratio": -0.278}, {"target": "ANKRD17 C1746 (UniProt O75179)", "log2 mean competition ratio": 0.212}, {"target": "APBA2 C272 (UniProt Q99767)", "log2 mean competition ratio": -0.108}, {"target": "ARHGEF26 C850", "log2 mean competition ratio": -0.182}, {"target": "ARHGEF26 C566", "log2 mean competition ratio": -0.31}, {"target": "ANKRD50 C1328 (UniProt Q9ULJ7)", "log2 mean competition ratio": -0.342}, {"target": "AP3M1 C288 (UniProt Q9Y2T2)", "log2 mean competition ratio": -0.289}, {"target": "ARHGAP29 C1066 (UniProt Q52LW3)", "log2 mean competition ratio": -0.13}, {"target": "ANXA2 C133", "log2 mean competition ratio": -0.139}, {"target": "ANKS1A C155 (UniProt Q92625)", "log2 mean competition ratio": -0.0818}, {"target": "ASCC3 C1638 (UniProt Q8N3C0)", "log2 mean competition ratio": -0.291}, {"target": "ARL6IP1 C109 (UniProt Q15041)", "log2 mean competition ratio": 0.603}, {"target": "ARHGEF7 C721 (UniProt Q14155)", "log2 mean competition ratio": 0.0567}, {"target": "ARHGAP35 C924 (UniProt Q9NRY4)", "log2 mean competition ratio": 0.304}, {"target": "ARHGAP31 C572", "log2 mean competition ratio": 0.117}, {"target": "AP3M2 C29 (UniProt P53677)", "log2 mean competition ratio": 0.177}, {"target": "ARFGEF1 C1200 (UniProt Q9Y6D6)", "log2 mean competition ratio": -0.097}, {"target": "ARHGEF26 C491", "log2 mean competition ratio": -0.0603}, {"target": "ARHGAP24 C75 (UniProt Q8N264)", "log2 mean competition ratio": -0.493}, {"target": "ARHGAP17 C305 (UniProt Q68EM7)", "log2 mean competition ratio": -0.0619}, {"target": "ASCC3 C366 (UniProt Q8N3C0)", "log2 mean competition ratio": -0.198}, {"target": "ARID3A C327 (UniProt Q99856)", "log2 mean competition ratio": 0.229}]}, {"compound": "ClCC(=O)N[C@@H]1CCCc2ccccc12", "assay": "log2 mean competition ratio of IA-DTB cysteine labelling (DMSO/compound) (log2 ratio); higher = stronger cysteine engagement by compound", "settings": "200 µM; treatment time: 4 h; cell line lysate: HEK293T", "protocol": "as §1", "values": [{"target": "ANKRD17 C242 (UniProt O75179)", "log2 mean competition ratio": -0.326}, {"target": "APBA2 C483 (UniProt Q99767)", "log2 mean competition ratio": -0.547}, {"target": "ARIH1 C161 (UniProt Q9Y4X5)", "log2 mean competition ratio": -0.0981}, {"target": "ARID2 C1512 (UniProt Q68CP9)", "log2 mean competition ratio": 0.0831}, {"target": "ANKRD54 C230 (UniProt Q6NXT1)", "log2 mean competition ratio": 0.362}, {"target": "ARL16 C164", "log2 mean competition ratio": 0.102}, {"target": "AP1B1 C921 (UniProt Q10567)", "log2 mean competition ratio": -0.104}, {"target": "ANKRD26 C1106 (UniProt Q9UPS8)", "log2 mean competition ratio": 0.0196}, {"target": "ARPIN C183 (UniProt Q7Z6K5)", "log2 mean competition ratio": 0.477}, {"target": "APBB2 C560 (UniProt Q92870)", "log2 mean competition ratio": 0.124}, {"target": "ARHGEF28 C783", "log2 mean competition ratio": -0.149}, {"target": "AP2A1 C267 (UniProt O95782)", "log2 mean competition ratio": 0.0636}, {"target": "AP2A1 C171 (UniProt O95782)", "log2 mean competition ratio": 0.205}, {"target": "ARHGAP11A C690 (UniProt Q6P4F7)", "log2 mean competition ratio": 0.0633}, {"target": "ARVCF C442 (UniProt O00192)", "log2 mean competition ratio": 0.402}, {"target": "AS3MT C271", "log2 mean competition ratio": 0.00943}, {"target": "ARID4A C25 (UniProt P29374)", "log2 mean competition ratio": -0.209}, {"target": "ANKRD17 C1746 (UniProt O75179)", "log2 mean competition ratio": -0.141}, {"target": "APBA2 C272 (UniProt Q99767)", "log2 mean competition ratio": -0.0245}, {"target": "ARHGEF26 C850", "log2 mean competition ratio": -0.147}, {"target": "ARHGEF26 C566", "log2 mean competition ratio": 0.357}, {"target": "ANKRD50 C1328 (UniProt Q9ULJ7)", "log2 mean competition ratio": 0.418}, {"target": "AP3M1 C288 (UniProt Q9Y2T2)", "log2 mean competition ratio": 0.103}, {"target": "ARHGAP29 C1066 (UniProt Q52LW3)", "log2 mean competition ratio": 0.274}, {"target": "ANXA2 C133", "log2 mean competition ratio": -0.0756}, {"target": "ANKS1A C155 (UniProt Q92625)", "log2 mean competition ratio": -0.583}, {"target": "ASCC3 C1638 (UniProt Q8N3C0)", "log2 mean competition ratio": 0.149}, {"target": "ARL6IP1 C109 (UniProt Q15041)", "log2 mean competition ratio": 0.101}, {"target": "ARHGEF7 C721 (UniProt Q14155)", "log2 mean competition ratio": -0.00835}, {"target": "ARHGAP35 C924 (UniProt Q9NRY4)", "log2 mean competition ratio": -0.267}, {"target": "ARHGAP31 C572", "log2 mean competition ratio": 0.169}, {"target": "AP3M2 C29 (UniProt P53677)", "log2 mean competition ratio": -0.0984}, {"target": "ARFGEF1 C1200 (UniProt Q9Y6D6)", "log2 mean competition ratio": 0.323}, {"target": "ARHGEF26 C491", "log2 mean competition ratio": -0.00828}, {"target": "ARHGAP24 C75 (UniProt Q8N264)", "log2 mean competition ratio": 0.321}, {"target": "ARHGAP17 C305 (UniProt Q68EM7)", "log2 mean competition ratio": 0.0501}, {"target": "ASCC3 C366 (UniProt Q8N3C0)", "log2 mean competition ratio": -0.118}, {"target": "ARID3A C327 (UniProt Q99856)", "log2 mean competition ratio": -0.232}]}, {"compound": "ClCC(=O)N[C@H]1CCCc2ccccc12", "assay": "log2 mean competition ratio of IA-DTB cysteine labelling (DMSO/compound) (log2 ratio); higher = stronger cysteine engagement by compound", "settings": "50 µM; treatment time: 4 h; cell line lysate: HEK293T", "protocol": "as §1", "values": [{"target": "ARIH1 C161 (UniProt Q9Y4X5)", "log2 mean competition ratio": -0.129}, {"target": "ANKRD26 C1106 (UniProt Q9UPS8)", "log2 mean competition ratio": -0.315}, {"target": "ARHGEF28 C783", "log2 mean competition ratio": -0.421}, {"target": "ARVCF C442 (UniProt O00192)", "log2 mean competition ratio": 0.371}, {"target": "ARID4A C25 (UniProt P29374)", "log2 mean competition ratio": -0.0724}, {"target": "ARHGEF26 C850", "log2 mean competition ratio": 0.0641}, {"target": "ARHGEF26 C566", "log2 mean competition ratio": 0.00821}, {"target": "ANXA2 C133", "log2 mean competition ratio": -0.0366}, {"target": "ASCC3 C1638 (UniProt Q8N3C0)", "log2 mean competition ratio": -0.336}, {"target": "ARHGAP31 C572", "log2 mean competition ratio": -0.35}, {"target": "ASCC3 C366 (UniProt Q8N3C0)", "log2 mean competition ratio": -0.214}]}]}
